Measured values taken from article PMC7542355.
These are yes or no findings as the source states them, for the method shown. In cells and extracts the contact can be indirect. A result given as binding can be weak or reduced; the word gives no strength.

Amino acid sequences for entries named in this document (tags omitted). A change or cut given only in a name is not applied to a line headed by its entry.
UniProt O77310: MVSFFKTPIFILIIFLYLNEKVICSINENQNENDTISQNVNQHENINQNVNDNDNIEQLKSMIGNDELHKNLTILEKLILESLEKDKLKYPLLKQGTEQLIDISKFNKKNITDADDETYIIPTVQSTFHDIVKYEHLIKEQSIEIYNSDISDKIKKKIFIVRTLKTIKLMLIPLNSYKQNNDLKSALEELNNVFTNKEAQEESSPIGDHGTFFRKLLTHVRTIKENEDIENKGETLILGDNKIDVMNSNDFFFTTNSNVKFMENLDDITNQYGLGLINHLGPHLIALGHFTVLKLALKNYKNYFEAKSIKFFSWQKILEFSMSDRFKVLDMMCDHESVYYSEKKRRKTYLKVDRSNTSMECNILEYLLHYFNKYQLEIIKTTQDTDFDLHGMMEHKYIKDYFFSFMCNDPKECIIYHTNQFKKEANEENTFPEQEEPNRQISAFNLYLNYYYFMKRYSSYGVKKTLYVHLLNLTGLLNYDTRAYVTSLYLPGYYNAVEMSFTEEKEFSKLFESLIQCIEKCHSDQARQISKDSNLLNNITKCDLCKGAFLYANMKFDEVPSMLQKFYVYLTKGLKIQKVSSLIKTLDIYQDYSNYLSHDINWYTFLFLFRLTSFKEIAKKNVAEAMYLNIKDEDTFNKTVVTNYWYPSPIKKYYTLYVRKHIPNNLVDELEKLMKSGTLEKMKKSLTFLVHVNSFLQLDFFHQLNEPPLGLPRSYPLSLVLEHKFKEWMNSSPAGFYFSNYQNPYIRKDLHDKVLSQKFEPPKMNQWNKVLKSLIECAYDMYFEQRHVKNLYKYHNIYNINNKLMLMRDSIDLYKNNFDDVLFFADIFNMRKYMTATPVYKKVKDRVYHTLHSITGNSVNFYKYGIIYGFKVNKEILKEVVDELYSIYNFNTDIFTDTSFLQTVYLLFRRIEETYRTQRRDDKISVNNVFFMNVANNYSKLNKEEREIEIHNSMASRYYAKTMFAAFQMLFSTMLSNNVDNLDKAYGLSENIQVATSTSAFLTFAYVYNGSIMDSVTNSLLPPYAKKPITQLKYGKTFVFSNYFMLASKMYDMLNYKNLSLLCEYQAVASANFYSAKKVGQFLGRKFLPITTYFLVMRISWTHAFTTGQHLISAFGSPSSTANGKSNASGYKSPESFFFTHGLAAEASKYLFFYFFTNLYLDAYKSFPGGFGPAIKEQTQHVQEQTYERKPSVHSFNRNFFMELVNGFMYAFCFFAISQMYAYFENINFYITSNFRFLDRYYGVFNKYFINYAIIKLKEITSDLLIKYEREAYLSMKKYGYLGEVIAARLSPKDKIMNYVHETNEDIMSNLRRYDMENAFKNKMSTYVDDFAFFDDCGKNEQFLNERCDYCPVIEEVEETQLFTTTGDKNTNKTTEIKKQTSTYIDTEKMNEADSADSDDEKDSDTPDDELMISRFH

Molecular target: T1, Rhoptry protein RhopH3 (Plasmodium falciparum (endogenous in 3D7 parasites)) (UniProt Q8I395)
T1 sequence: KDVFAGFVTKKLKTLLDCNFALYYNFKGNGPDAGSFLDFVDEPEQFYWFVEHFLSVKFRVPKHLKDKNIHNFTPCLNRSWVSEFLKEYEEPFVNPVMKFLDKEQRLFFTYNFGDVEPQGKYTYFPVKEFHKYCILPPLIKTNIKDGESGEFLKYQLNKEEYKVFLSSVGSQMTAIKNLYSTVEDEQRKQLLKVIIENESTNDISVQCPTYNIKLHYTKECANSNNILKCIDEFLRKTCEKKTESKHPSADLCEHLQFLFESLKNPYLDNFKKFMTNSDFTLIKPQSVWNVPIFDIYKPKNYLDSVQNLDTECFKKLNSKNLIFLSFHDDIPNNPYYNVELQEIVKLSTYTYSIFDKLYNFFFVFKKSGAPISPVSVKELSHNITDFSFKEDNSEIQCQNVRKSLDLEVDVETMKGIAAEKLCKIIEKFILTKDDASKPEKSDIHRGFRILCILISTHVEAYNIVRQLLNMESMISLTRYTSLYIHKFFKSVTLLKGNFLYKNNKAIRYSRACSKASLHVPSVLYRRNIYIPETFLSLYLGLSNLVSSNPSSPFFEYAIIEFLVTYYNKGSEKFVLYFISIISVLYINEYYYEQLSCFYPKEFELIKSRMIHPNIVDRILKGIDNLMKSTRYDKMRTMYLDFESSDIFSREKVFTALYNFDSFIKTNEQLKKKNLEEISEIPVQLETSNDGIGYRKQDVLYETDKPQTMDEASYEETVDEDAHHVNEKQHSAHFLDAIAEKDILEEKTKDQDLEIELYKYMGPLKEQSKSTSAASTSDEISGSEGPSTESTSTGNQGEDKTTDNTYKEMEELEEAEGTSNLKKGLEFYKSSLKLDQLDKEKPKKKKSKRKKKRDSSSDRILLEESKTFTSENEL
Assay: co-IP; RhopH3 immunoprecipitated from an equal amount of 3D7 or R3_S804A schizont lysate; Western blot with Clag3.1 antibody

Clag3.1 (from UniProt O77310) was tested, and the binding was “binds”.
